Patent US20110245473A1
Positions count from the first letter of the chain named. Numbers in names are those of the source. No constants are given. Whether binding was seen depends on the method and setting. A result given as binding can be weak or reduced; the word gives no strength.

The chains behind the UniProt entries cited, without tags or fusion partners. Where a name states a change or a piece, a line headed by the entry shows the natural chain unless it says otherwise.
UniProt P08887: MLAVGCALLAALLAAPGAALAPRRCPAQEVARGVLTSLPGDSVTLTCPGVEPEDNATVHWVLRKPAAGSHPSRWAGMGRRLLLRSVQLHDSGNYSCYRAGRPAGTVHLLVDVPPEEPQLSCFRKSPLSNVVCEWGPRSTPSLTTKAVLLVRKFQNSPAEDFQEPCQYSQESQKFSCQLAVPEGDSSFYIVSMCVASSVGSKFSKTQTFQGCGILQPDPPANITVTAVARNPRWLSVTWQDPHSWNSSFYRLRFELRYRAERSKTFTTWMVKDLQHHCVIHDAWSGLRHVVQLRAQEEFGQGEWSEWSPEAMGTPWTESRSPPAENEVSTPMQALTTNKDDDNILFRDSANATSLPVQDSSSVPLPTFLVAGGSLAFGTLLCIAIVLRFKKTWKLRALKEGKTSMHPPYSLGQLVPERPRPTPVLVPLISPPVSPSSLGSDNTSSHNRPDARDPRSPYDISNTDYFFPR

B1: RDC-23 (antibody, V domains shown)
VH: QVQLQESGPGLVRPSQTLSLTCTVSGYSITSDHAWSWVRQPPGRGLEWIGYISYSGITTYNPSLKSRVTMLRDTSKNQFSLRLSSVTAADTAVYYCARVLARITAMDYWGQGSLVTVSS
VL: DIQMTQSPSSLSASVGDRVTITCRASQDISSYLNWYQQKPGKAPKLLIYYTSRLHSGVPSRFSGSGSGTDFTFTISSLQPEDIATYYCGQGNRLPYTFGQGTKVEIK
B2: PF1 antibody (antibody, IgG1, V domains shown)
VH: QVQLQESGPGLVKPSETLSLTCAVSGYSISDDHAWSWVRQPPGEGLEWIGYISYSGITNYNPSLKGRVTISRDTSKNQFSLKLSSVTAADTAAYYCARVLARITAMDYWGEGTLVTVSS
VL: B1 VL with R18S, R24Q, K45E, T51G, R53E, Q79E, P80A, I83A, K107E
B3: H96/PF1L-IgG1 (antibody, V domains shown)
VH: QVQLQESGPGLVKPSETLSLTCAVSGYSISDDHAWSWVRQPPGEGLEWIGYISYSGITNYNPSLKGRVTISRDNSKNTLYLQMNSLRAEDTAVYYCARVLARITAMDYWGEGTLVTVSS
VL: B1 VL with R18S, R24Q, K45E, T51G, R53E, Q79E, P80A, I83A, K107E
B4: F2H/L39-IgG1 (antibody, V domains shown)
VH: B3 VH with K65Q, G66D, V99L, I103A, E111Q, T113I
VL: DIQMTQSPSSLSASVGDSVTITCQASEDISSYLNWYQQKPGKAPELLIYYGSELESGVPSRFSGSGSGTDFTFTISSLEAEDAATYYCGQGNRLPYTFGQGTKVEIER

Experiments:
[1] = target: SR344 (soluble human IL-6R, N-terminal 1st to 344th amino acids) (human) (UniProt P08887); test: SPR (Biacore T100, 37 °C): antibody captured on Protein A/G, SR344 as analyte
[2] = target: SR344 (soluble human IL-6R, N-terminal 1st to 344th amino acids) (human) (UniProt P08887); test: SPR (Biacore T100), antibody captured on Protein A/G, SR344 as analyte, 37°C

Row | Binder | binding [1] | binding [2]
1 | B1 | binds | –
2 | B2 | binds | binds
3 | B3 | – | binds
4 | B4 | – | binds
